Data reported in article PMC3478510, “LI-cadherin cis-dimerizes in the plasma membrane Ca^2+ independently and forms highly dynamic trans-contacts” (Cellular and Molecular Life Sciences: CMLS, 2012).
These are yes or no findings as the source states them, for the method shown. In cells and extracts the contact can be indirect. Some binding calls cover weakened binding; strength is not graded here. Tags and fused reporters may be left off the sequences shown.

T1: LI-cadherin C-terminally tagged with cyan (LI-CFP) or yellow (LI-YFP) fluorescent protein (UniProt Q9R100)
T1 sequence: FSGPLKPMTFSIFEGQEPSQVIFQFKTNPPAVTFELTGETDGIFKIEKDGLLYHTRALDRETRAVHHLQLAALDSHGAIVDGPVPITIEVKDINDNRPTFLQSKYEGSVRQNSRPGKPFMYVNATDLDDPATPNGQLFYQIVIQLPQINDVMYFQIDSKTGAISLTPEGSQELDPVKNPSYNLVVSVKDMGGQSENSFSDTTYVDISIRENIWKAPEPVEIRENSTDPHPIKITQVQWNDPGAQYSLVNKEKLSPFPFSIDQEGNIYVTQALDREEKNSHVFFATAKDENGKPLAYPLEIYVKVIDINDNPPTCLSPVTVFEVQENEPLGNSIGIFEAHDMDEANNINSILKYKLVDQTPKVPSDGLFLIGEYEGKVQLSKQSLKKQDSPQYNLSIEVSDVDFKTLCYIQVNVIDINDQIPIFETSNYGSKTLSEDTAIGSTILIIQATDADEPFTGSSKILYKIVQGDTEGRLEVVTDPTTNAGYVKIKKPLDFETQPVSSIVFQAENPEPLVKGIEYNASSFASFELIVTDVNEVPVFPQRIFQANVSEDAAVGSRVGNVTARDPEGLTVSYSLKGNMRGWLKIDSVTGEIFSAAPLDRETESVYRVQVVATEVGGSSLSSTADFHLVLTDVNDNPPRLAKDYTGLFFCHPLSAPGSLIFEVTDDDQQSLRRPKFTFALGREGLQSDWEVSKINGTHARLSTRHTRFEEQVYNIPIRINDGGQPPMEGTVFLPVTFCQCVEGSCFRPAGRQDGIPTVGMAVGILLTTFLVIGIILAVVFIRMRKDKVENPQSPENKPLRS

B1: untagged LI-cadherin (natural protein, UniProt Q9R100 26-827, looked up)
chain: T1 sequence
notes: LI-cadherin (cadherin-17), untagged wild type; The expression construct of the untagged protein is not described in the methods; also called LIwt; wild-type LI; source: HEK293, transfected, in living cells (twofold excess, coexpressed with LI-CFP and LI-YFP)

Experiments:
[1] = target: T1, LI-cadherin C-terminally tagged with cyan (LI-CFP) or yellow (LI-YFP) fluorescent protein; test: FRET or BRET; acceptor (YFP) photobleaching FRET, CFP donor unquenching; living cotransfected HEK293 cells, cell-cell contact sites; 37 °C; 10 mM HEPES pH 7.4, 128 mM NaCl, 6 mM KCl, 1 mM MgCl2, 2 mM CaCl2; only cells with acceptor-to-donor ratio above 1.5
[2] = target: T1, LI-cadherin C-terminally tagged with cyan (LI-CFP) or yellow (LI-YFP) fluorescent protein; test: FRET or BRET; acceptor photobleaching FRET of LI-CFP/LI-YFP in HEK293 cells after Ca2+ removal (Ca2+-free buffer, 2 mM EGTA); former cell-cell contacts and membrane regions not engaged in cell contacts
[3] = target: T1, LI-cadherin C-terminally tagged with cyan (LI-CFP) or yellow (LI-YFP) fluorescent protein; test: FRET or BRET; FRET competition: twofold excess of untagged LI-cadherin coexpressed with LI-CFP and LI-YFP in HEK293 cells; acceptor photobleaching

binding [1] | binding [2] | binding [3] | Molecule
no binding |  |  | epidermal growth factor receptor-CFP fusion protein (from UniProt P00533 25-1210)
 | binds | binds | B1
